Test results: the supplement of paper PMC10849652
This is one part of the list.

Protein sequences, listed by entry. Tags and fused reporters are not part of them. Lines headed by an entry give the natural chain unless they say otherwise; changes in a name come on top.
UniProt Q9Y2B0: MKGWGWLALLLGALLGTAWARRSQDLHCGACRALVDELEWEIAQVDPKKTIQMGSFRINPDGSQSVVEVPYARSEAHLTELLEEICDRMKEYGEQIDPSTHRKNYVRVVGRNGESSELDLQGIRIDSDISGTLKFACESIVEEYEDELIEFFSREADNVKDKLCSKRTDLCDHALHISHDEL
UniProt Q5EBM0: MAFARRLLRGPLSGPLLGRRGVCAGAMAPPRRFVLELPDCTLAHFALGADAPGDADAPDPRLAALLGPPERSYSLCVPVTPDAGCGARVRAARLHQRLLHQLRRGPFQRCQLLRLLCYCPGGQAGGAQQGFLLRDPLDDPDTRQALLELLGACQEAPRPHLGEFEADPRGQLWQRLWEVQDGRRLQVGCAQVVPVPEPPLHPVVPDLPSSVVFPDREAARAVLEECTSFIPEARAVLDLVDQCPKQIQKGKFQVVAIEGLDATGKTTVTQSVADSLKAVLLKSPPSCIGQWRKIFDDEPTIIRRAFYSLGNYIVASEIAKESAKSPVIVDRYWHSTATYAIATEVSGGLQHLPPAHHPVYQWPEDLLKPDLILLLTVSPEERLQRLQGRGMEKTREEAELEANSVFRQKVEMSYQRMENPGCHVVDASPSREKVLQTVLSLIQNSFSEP
UniProt Q14011: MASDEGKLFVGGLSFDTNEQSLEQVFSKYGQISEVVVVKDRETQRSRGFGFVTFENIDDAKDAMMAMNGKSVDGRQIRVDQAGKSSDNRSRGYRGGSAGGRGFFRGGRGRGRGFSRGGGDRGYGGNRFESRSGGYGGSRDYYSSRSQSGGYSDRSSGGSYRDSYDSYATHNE
UniProt Q9NRP2: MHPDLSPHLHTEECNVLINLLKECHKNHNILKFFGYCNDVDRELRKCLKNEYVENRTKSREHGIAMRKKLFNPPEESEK
UniProt P12277: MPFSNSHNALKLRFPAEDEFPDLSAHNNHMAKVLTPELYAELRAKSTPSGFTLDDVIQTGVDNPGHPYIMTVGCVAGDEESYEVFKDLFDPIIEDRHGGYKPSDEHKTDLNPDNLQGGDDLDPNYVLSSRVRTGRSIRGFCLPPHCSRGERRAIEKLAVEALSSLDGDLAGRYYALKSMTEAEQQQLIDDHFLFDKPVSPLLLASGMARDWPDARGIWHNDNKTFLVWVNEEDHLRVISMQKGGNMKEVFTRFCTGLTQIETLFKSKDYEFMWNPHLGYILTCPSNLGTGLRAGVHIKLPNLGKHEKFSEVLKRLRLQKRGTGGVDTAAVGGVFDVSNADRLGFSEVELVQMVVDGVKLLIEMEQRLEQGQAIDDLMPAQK
UniProt P51790: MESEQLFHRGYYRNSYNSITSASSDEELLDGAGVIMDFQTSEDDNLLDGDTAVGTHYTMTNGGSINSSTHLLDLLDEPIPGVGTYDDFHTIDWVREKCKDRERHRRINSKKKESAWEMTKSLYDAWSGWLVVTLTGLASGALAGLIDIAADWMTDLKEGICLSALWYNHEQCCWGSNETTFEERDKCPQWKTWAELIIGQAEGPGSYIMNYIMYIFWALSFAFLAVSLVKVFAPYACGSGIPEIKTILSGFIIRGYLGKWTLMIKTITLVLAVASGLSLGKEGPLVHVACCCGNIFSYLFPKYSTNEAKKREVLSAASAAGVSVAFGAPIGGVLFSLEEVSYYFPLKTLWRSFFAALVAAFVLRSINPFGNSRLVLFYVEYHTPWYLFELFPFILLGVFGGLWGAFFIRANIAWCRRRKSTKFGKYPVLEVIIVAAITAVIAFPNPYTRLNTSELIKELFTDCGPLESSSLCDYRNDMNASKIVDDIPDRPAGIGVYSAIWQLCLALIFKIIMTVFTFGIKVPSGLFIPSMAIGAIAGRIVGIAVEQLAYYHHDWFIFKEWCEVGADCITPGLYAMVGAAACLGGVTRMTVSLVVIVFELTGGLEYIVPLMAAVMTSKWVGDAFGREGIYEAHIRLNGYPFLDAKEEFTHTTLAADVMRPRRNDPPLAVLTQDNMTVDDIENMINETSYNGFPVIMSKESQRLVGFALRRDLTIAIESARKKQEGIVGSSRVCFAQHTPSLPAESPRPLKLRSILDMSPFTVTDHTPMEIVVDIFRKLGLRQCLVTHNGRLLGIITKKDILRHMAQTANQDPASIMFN
UniProt Q7Z460: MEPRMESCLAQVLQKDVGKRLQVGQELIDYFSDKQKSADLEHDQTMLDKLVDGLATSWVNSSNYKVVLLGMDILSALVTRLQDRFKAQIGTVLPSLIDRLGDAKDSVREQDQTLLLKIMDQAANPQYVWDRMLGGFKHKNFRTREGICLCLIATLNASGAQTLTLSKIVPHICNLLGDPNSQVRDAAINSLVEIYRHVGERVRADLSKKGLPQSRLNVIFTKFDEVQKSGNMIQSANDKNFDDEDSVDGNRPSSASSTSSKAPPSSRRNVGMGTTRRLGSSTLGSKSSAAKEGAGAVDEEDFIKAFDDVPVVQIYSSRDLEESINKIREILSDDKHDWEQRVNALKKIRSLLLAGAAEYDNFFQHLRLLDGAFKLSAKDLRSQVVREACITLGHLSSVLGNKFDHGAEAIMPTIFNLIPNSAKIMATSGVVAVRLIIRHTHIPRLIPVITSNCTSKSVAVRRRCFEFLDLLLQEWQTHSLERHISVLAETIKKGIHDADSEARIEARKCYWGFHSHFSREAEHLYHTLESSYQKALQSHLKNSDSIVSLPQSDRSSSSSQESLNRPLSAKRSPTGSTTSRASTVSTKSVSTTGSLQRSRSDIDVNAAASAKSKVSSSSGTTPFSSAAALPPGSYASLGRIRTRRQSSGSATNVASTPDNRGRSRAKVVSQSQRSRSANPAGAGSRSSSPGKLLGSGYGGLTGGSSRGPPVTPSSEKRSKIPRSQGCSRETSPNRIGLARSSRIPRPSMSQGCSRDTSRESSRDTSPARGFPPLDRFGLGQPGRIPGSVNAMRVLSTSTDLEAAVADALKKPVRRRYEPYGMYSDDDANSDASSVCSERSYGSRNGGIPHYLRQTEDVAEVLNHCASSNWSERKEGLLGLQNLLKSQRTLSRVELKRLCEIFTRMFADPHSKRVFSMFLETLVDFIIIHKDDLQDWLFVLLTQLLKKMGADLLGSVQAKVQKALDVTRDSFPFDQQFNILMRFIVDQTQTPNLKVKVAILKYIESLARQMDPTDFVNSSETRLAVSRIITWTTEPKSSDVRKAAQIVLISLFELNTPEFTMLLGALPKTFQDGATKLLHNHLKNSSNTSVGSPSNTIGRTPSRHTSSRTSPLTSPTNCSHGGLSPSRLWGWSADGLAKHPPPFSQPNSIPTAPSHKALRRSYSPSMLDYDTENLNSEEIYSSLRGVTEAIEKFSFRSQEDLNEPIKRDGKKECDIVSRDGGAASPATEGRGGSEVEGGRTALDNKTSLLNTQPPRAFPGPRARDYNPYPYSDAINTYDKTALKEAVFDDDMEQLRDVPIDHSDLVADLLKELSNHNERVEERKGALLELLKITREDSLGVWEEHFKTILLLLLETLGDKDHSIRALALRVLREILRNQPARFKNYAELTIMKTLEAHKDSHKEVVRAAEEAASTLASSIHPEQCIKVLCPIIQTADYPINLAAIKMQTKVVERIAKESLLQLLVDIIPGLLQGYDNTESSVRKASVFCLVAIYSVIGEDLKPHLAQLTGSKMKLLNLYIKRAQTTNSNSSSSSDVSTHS
UniProt Q8N1G2: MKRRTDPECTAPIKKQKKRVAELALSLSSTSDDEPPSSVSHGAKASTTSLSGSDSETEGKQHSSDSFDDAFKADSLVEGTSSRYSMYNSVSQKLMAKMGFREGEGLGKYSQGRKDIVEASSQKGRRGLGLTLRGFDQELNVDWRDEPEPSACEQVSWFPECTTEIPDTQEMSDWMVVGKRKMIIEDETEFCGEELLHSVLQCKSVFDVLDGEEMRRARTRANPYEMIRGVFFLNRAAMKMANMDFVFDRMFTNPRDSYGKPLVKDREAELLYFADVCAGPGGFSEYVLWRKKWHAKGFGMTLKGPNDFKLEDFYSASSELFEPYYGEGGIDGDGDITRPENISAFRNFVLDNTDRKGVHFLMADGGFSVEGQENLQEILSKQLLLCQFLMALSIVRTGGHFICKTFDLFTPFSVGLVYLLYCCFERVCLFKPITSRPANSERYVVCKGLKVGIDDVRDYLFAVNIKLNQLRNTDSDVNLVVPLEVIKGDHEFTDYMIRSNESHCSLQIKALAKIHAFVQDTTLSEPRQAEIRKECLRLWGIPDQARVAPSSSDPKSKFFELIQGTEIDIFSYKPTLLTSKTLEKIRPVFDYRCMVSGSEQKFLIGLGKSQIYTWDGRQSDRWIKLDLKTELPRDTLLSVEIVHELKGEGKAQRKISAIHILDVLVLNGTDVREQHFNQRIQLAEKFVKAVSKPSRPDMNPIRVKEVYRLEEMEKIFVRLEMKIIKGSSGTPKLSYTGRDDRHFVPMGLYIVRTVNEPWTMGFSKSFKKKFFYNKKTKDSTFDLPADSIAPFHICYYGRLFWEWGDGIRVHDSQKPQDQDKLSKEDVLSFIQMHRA
UniProt O14967: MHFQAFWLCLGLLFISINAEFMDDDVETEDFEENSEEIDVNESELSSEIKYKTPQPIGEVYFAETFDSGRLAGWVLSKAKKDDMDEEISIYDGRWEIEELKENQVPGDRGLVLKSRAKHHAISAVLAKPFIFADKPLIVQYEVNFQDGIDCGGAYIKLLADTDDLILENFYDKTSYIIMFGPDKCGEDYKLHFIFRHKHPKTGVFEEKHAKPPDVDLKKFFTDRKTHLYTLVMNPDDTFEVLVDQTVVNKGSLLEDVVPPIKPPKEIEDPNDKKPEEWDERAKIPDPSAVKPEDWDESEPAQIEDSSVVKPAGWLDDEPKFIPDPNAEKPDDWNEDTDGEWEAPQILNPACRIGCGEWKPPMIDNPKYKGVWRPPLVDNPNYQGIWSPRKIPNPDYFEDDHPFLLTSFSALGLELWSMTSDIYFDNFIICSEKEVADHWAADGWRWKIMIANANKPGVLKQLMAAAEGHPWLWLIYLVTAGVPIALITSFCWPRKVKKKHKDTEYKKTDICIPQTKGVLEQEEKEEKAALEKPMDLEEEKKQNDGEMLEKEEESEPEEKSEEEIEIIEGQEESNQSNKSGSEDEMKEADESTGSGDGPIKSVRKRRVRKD
UniProt Q9BT09: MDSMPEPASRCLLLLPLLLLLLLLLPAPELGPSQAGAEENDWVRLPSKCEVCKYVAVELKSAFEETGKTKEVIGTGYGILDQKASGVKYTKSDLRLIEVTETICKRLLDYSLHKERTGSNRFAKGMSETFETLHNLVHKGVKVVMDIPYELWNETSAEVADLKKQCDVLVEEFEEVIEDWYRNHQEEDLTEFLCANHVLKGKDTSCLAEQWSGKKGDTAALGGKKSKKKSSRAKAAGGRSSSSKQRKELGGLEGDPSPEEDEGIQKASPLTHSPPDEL
UniProt Q96KP4: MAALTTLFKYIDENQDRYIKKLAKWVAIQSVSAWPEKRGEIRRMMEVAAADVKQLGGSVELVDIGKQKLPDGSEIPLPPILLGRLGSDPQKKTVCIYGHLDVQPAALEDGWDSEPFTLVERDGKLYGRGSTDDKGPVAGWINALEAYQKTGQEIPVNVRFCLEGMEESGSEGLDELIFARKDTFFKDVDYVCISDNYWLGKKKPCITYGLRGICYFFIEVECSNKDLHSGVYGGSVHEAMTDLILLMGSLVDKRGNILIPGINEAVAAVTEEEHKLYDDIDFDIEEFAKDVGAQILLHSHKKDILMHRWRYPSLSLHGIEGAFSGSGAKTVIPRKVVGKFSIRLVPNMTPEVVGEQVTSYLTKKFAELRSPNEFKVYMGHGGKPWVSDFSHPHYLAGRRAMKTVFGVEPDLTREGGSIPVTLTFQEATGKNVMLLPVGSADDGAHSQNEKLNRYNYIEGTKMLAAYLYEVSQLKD
UniProt Q13286: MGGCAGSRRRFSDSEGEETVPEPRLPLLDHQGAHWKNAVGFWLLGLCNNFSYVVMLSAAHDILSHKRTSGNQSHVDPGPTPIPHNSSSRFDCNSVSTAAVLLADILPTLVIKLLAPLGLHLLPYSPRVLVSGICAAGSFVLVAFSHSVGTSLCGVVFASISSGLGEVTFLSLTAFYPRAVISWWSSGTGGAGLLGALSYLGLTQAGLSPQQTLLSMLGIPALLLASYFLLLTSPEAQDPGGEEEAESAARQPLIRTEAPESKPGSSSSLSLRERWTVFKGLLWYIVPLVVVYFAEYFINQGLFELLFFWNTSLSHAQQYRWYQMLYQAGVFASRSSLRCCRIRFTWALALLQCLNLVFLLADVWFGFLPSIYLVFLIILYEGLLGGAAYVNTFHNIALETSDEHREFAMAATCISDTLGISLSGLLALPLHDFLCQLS
UniProt Q9UBY8, whole entry, looked up: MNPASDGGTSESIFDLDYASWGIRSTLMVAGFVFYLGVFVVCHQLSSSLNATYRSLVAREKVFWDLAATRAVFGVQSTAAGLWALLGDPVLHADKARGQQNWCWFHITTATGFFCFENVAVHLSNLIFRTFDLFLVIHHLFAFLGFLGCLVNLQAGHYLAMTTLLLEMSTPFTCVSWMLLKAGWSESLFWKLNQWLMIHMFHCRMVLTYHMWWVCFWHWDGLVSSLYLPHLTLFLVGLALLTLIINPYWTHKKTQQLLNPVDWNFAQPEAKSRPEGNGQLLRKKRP

Columns and labels:
Assay in all cases: log2 fold change, soluble protein after heating vs DMSO (PISA); higher = thermal stabilisation; K562 cells, 10 uM, 30 min; active = over 0.2 and 3.5 SD of the protein, either way, in both replicates (recomputed)
[1] = compound: C1=CC=C(C=C1)[C@H](COC2=CC3=C(C=C2)NC(=O)N3)NC(=O)C4=CC=CN(C4=O)CC5=CC(=C(C=C5)F)F
Summary of the method: (§1)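 Soluble protein was defined as the supernatant after 21,000xg for 90 min. It came from K562 cells at 2×10^6 cells/mL given 10 μM compound for 30 min, heated in aliquots for 3 min across 48°C-58°C, pooled, and extracted in PBS with 0.5% NP-40 at 4°C, and was quantified by TMTpro 16plex LC-MS/MS with equalised channel sums. Thermal stability against control samples, from duplicates, is reported as log2 fold change.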

[2] = compound: CC1=C(SC2=C1C(=N[C@H](C3=NN=C(N32)C)CC(=O)N)C4=CC=C(C=C4)Cl)C
Summary of the method: as §1

[3] = compound: CC1=C2C(=CC=C1)N=C(N(C2=O)C3=CC=CC=C3C)CN4C=NC5=C(N=CN=C54)N
Summary of the method: as §1

[4] = compound: Cc1sc2c(c1C)C(c1ccc(Cl)cc1)=N[C@@H](CC(=O)OC(C)(C)C)c1nnc(C)n1-2
Summary of the method: as §1

[5] = compound: c1ccc([C@@H]2C[C@H]2NC2CCNCC2)cc1
Summary of the method: as §1

Measured: log2 fold change

CLINT1 (UniProt Q14677)
inactive: [1] 0.063 | [2] 0.131 | [3] -0.005 | [4] -0.009 | [5] 0.157

CNPY2 (UniProt Q9Y2B0)
inactive: [1] 0.016 | [2] 0.049 | [3] -0.012 | [4] 0.019 | [5] -0.04

CIT isoform 4 (UniProt O14578)
inactive: [1] -0.055 | [2] 0.002 | [3] 0.001 | [4] -0.011 | [5] 0.009

CMPK2 (UniProt Q5EBM0)
inactive: [1] -0.022 | [2] -0.009 | [3] 0.094 | [4] 0.002 | [5] -0.022

CIRBP isoform 2 (UniProt Q14011)
inactive: [1] 0.038 | [2] -0.14 | [3] -0.066 | [4] 0.115 | [5] 0.006

CMC2 (UniProt Q9NRP2)
inactive: [1] -0.001 | [2] -0.035 | [3] -0.046 | [4] -0.035 | [5] 0.083

CKB (UniProt P12277)
inactive: [1] -0.1 | [2] 0.01 | [3] 0.038 | [4] -0.022 | [5] -0.118

CLCN3 (UniProt P51790)
inactive: [1] 0.01 | [2] 0.025 | [3] 0.064 | [4] -0.107 | [5] 0.056

CNOT2 (UniProt Q9NZN8)
inactive: [1] 0.024 | [2] -0.014 | [3] 0.056 | [4] 0.031 | [5] -0.002

CLASP1 (UniProt Q7Z460)
inactive: [1] -0.039 | [2] -0.002 | [3] 0.079 | [4] 0 | [5] -0.044

CMTR1 (UniProt Q8N1G2)
inactive: [1] -0.008 | [2] 0.033 | [3] 0.07 | [4] -0.009 | [5] -0.04

CLGN (UniProt O14967)
inactive: [1] -0.062 | [2] 0.043 | [3] -0.005 | [4] 0.098 | [5] 0.032

CKAP5 (UniProt Q14008)
inactive: [1] -0.061 | [2] -0.012 | [3] 0.032 | [4] 0.035 | [5] -0.018

CNPY3 (UniProt Q9BT09)
inactive: [1] 0.025 | [2] 0.114 | [3] 0.007 | [4] -0.005 | [5] -0.01

CNDP2 (UniProt Q96KP4)
inactive: [1] -0.006 | [2] 0.039 | [3] 0.023 | [4] 0.009 | [5] -0.041

COL18A1 (UniProt P39060)
inactive: [1] -0.051 | [2] 0.106 | [3] -0.123 | [4] -0.045 | [5] -0.219

CHRAC1 (UniProt Q9NRG0)
inactive: [1] -0.08 | [2] 0.033 | [3] -0.016 | [4] -0.061 | [5] -0.054

CNTN4 (UniProt Q8IWV2)
inactive: [1] 0.093 | [2] 0.154 | [3] 0.103 | [4] -0.075 | [5] -0.106

CNNM3 (UniProt Q8NE01)
inactive: [1] -0.025 | [2] 0.048 | [3] 0.08 | [4] -0.035 | [5] -0.063

CLN3 (UniProt Q13286)
inactive: [1] 0.005 | [2] -0.032 | [3] -0.315 | [4] -0.119 | [5] 0.087

CNOT6L (UniProt Q96LI5)
inactive: [1] -0.04 | [2] -0.002 | [3] 0.13 | [4] -0.008 | [5] -0.051

CLIP4 (UniProt Q8N3C7)
inactive: [1] -0.012 | [2] -0.086 | [3] 0.054 | [4] 0.029 | [5] 0.035

CISD2 (UniProt Q8N5K1)
inactive: [1] 0.027 | [2] -0.028 | [3] 0.011 | [4] -0.013 | [5] 0.015

Quoted from the entries so far (2 entries):
CNNM3 (UniProt Q8NE01)
inactive: [1] -0.025 | [2] 0.048 | [3] 0.08 | [4] -0.035 | [5] -0.063

CLN3 (UniProt Q13286)
inactive: [1] 0.005 | [2] -0.032 | [3] -0.315 | [4] -0.119 | [5] 0.087

Following part:

CLN8 (UniProt Q9UBY8)
inactive: [1] 0.121 | [2] 0.042 | [3] -0.067 | [4] 0.043 | [5] -0.057
